In paper PMC11673421:
These are yes or no findings as the source states them, for the method shown. Binding seen in cells or lysates may run through a third protein. Here binding means that the protein was enriched with, or labelled near, the bait; the list need not be complete.

Amino acid sequences for entries named in this document (tags omitted). Residues count along the entry.
UniProt Q9NXA8, residues 37-310: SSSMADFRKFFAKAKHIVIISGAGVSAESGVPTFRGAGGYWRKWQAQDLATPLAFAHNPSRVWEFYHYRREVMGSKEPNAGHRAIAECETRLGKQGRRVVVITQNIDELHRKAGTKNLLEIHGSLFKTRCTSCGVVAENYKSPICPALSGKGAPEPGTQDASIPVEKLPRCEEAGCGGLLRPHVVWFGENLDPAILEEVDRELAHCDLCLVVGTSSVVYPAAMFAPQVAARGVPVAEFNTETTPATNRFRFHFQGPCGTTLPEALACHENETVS

B1: ATP-binding cassette sub-family D member 3 (ABCD3) (protein, UniProt P55096 1-659)
chain: MAAFSKYLTARNTSLAGAAFLLLCLLHKRRRALGLHGKKSGKPPLQNNEKEGKKERAVVDKVFLSRLSQILKIMVPRTFCKETGYLLLIAVMLVSRTYCDVWMIQNGTLIESGIIGRSSKDFKRYLFNFIAAMPLISLVNNFLKYGLNELKLCFRVRLTRYLYEEYLQAFTYYKMGNLDNRIANPDQLLTQDVEKFCNSVVDLYSNLSKPFLDIVLYIFKLTSAIGAQGPASMMAYLLVSGLFLTRLRRPIGKMTIMEQKYEGEYRYVNSRLITNSEEIAFYNGNKREKQTIHSVFRKLVEHLHNFIFFRFSMGFIDSIIAKYVATVVGYLVVSRPFLDLAHPRHLHSTHSELLEDYYQSGRMLLRMSQALGRIVLAGREMTRLAGFTARITELMQVLKDLNHGRYERTMVSQQEKGIEGAQASPLVPGAGEIINTDNIIKFDHVPLATPNGDILIQDLSFEVRSGANVLICGPNGCGKSSLFRVLGELWPLFGGRLTKPERGKLFYVPQRPYMTLGTLRDQVIYPDGKEDQKKRGISDQVLKEYLDNVQLGHILEREGGWDSVQDWMDVLSGGEKQRMAMARLFYHKPQFAILDECTSAVSVDVEDYIYSHCRKVGITLFTVSHRKSLWKHHEYYLHMDGRGNYEFKKITEDTVEFGS
B2: Acyl-coenzyme A thioesterase 4 (ACOT4) (enzyme, UniProt Q8BWN8 1-421)
chain: MAATLSVEPTGRSCWDEPLSIAVRGLAPEQPVTLRSVLRDEKGALFRAHARYRADSHGELDLARVPALGGSFSGLEPMGLLWAMEPDRPFWRLIKRDVQTPFLVELEVLDGHEPDGGRRLARTVHERHFMAPGVRRVPVREGRVRATLFLPPGQGPFPGIIDVYGVGGGLLEYRAGLVAGHGFATLALAFYDFEDLPKELNVIEVDYFEEAVRYMLRHPKVKGPDIGLLGLSLGADVCLIMASFLNNVSATVSINGSAFSGNRHIKYKQTMIPPLGHDLRRMKVAFSGILDIVDIRNDAVGGCENPSMIPIEKAKGPILFVAGQDDHCWRSELYTQIASDRLQAHGKERPQVLSYPGTGHYIEPPYFPMCPASLHKIVNEAVIWGGEVKAHSKAQIDAWKQILFFFGKHLGSTHSRASCRL

Biological target: recombinant 6His tagged SIRT5 (human sirtuin-5) (human) (UniProt Q9NXA8)
Experiment: affinity purification with mass spectrometry; 5 ug recombinant 6His-SIRT5 added to pre-cleared SIRT5KO mouse liver lysate in RIPA buffer, 37 C for 30 min; polyHis-antibody agarose overnight at 4 C; 4 washes with RIPA; SDS-PAGE bands excised and identified by mass spectrometry; only the target purified

| Binder | binding |
| --- | --- |
| B1 | binds |
| B2 | binds |
